Test results taken from PubChem BioAssay AID248 (DTP/NCI, 2004).
The list is a part of this screen's results and no random one: it gathers tests that were run many times, whatever their T/C, doses with no T/C, and many T/C values between a quarter and a half above the control. Further doses and runs are listed elsewhere. T/C gives the treated animals as a percentage of the vehicle group. Some doses have a count of surviving animals in place of a T/C: the source holds a T/C of zero for them, seemingly a mark for toxic or unscored doses. Some doses without a T/C left all or most animals alive at the check, yet need not have been tolerated: the source hardly ever lists a survival T/C far under the control, and the zero likely stands for such cases as well. Counts of survivors are from the toxicity check (mostly the fifth day) where no day follows; animals may have died later. Schedules are NCI's codes, taken here to give the interval after Q, in days (D) or hours (H), and the number of doses after X. Some schedules carry Z or #; the key to these is not given. Some entries hold several experiments; the values are given in rising order. Where survival is the endpoint, this PubChem deposit counts one and a half times the control or more as active, and values a quarter to a half above the control carry no call in these data; other NCI protocols may use other cut-offs.

Test system: L1210 leukemia ip in BDF1 mice, survival T/C
Assay: NCI In Vivo Anticancer Drug Screen. Data for tumor model L1210 Leukemia (intraperitoneal) in B6D2F1 (BDF1) mice
Settings: T/C endpoint: mean survival time, higher T/C = longer survival
[1] = dose: 400.0 mg/kg/injection, schedule: Q04DX003 (ip), vehicle: saline with Tween-80
[2] = dose: 200.0 mg/kg/injection, schedule: Q01DX009 (ip), vehicle: saline with Tween-80
[3] = dose: 400.0 mg/kg/injection, schedule: Q01DX001 (ip), vehicle: saline with Tween-80
[4] = dose: 400.0 mg/kg/injection, schedule: Q01DX009 (ip), vehicle: Klucel (hydroxypropylcellulose) (HPC)
[5] = dose: 200.0 mg/kg/injection, schedule: Q01DX001 (ip), vehicle: saline
[6] = dose: 400.0 mg/kg/injection, schedule: Q01DX001 (ip), vehicle: saline
[7] = dose: 200.0 mg/kg/injection, schedule: Q04DX002 (ip), vehicle: Klucel (hydroxypropylcellulose) (HPC)
[8] = dose: 400.0 mg/kg/injection, schedule: Q04DX002 (ip), vehicle: Klucel (hydroxypropylcellulose) (HPC)
[9] = dose: 400.0 mg/kg/injection, schedule: Q04DX003 (ip), vehicle: Klucel (hydroxypropylcellulose) (HPC)
[10] = dose: 400.0 mg/kg/injection, schedule: Q04DX003 (ip), vehicle: saline
[11] = dose: 100.0 mg/kg/injection, schedule: Q01DX009 (ip), vehicle: Klucel (hydroxypropylcellulose) (HPC)
[12] = dose: 200.0 mg/kg/injection, schedule: Q01DX009 (ip), vehicle: Klucel (hydroxypropylcellulose) (HPC)

`Oc1ccc(Br)cc1/C=N\NC(=S)Nc1ccc2cn[nH]c2c1` was tested, and the survivor count (dose: 50.0 mg/kg/injection, schedule: Q01DX001 (ip), vehicle: carboxymethylcellulose (CMC)) was 2 of 4, the survivor count (dose: 100.0 mg/kg/injection, schedule: Q01DX001 (ip), vehicle: carboxymethylcellulose (CMC)) was 0 of 4 and 2 of 4 and the survivor count (dose: 200.0 mg/kg/injection, schedule: Q01DX001 (ip), vehicle: carboxymethylcellulose (CMC)) was 0 of 4. For the same molecule, the survivor count (dose: 400.0 mg/kg/injection, schedule: Q01DX001 (ip), vehicle: carboxymethylcellulose (CMC)) was 0 of 4 and 2 of 4.
With `CC1(C(Cl)(Cl)Cl)C=CC(=NO)C=C1` (stereo not drawn) the survivor count [1] was 2 of 6.
For `CN(C)C=NCCNc1ccc([N+](=O)[O-])cn1`, the survivor count [2] was 5 of 6 and the survivor count [3] was 1 of 6.
`S=C(N/N=C/c1ccccn1)NC1CC2C=CC1C2` (stereo not drawn) was tested, and the survivor count [4] was 3 of 6.
In the case of `CC(Cl)(/N=N/C(C)(Cl)c1cccc(Cl)c1)c1ccc(Cl)cc1` (stereo not drawn), the survivor count (dose: 200.0 mg/kg/injection, schedule: Q04DX003 (ip), vehicle: saline with Tween-80) is reported as 0 of 4 and the survivor count [1] is reported as 1 of 4.
For `CN1CCN(c2c3c(nc4ccccc24)CCCC3)CC1`, the survivor count [5] was 0 of 4 and the survivor count [6] was 0 of 4.
`CC(C)=NNC(=O)Nc1ccc(C)c(Cl)c1` was tested, and the survivor count (dose: 200.0 mg/kg/injection, schedule: Q01DX001 (ip), vehicle: Klucel (hydroxypropylcellulose) (HPC)) was 6 of 6.
In the case of `NC(CSS(=O)(=O)O)=NCCSc1ccc(Cl)cc1`, the survivor count (dose: 50.0 mg/kg/injection, schedule: Q04DX002 (ip), vehicle: Klucel (hydroxypropylcellulose) (HPC)) is reported as 1 of 3, the survivor count (dose: 100.0 mg/kg/injection, schedule: Q04DX002 (ip), vehicle: Klucel (hydroxypropylcellulose) (HPC)) is reported as 0 of 3 and the survivor count [7] is reported as 0 of 3. The survivor count [8] was 0 of 3.
In the case of `Cc1c2oc3c(C)ccc(C(=O)NC4C(=O)NC(C(C)C)C(=O)N5CCCC5C(=O)N(C)CC(=O)N(C)C(C(C)C)C(=O)OC4C)c3nc-2c(C(=O)NC2C(=O)NC(C(C)C)C(=O)N3CCCC3C(=O)N(C)CC(=O)N(C)C(C(C)C)C(=O)OC2C)cc1=O` (stereo not drawn), the T/C (dose: 25.0 micrograms/kg/injection, schedule: Q01DX009 (ip), vehicle: saline + alcohol) is reported as 149 % of control.
`CCOP(=O)(CCN(C(C)C)C(C)C)OCC` was tested, and the survivor count (dose: 200.0 mg/kg/injection, schedule: Q04DX003 (ip), vehicle: Klucel (hydroxypropylcellulose) (HPC)) was 6 of 6 and the survivor count [9] was 5 of 6.
For `CCCN(CCC)CC(=O)N1CC(=O)Nc2ccccc21`, the survivor count (dose: 400.0 mg/kg/injection, schedule: Q04DX003 (ip), vehicle: acetone) was 6 of 6.
With `CN(CCN(CCCl)c1ccc(N)cc1)c1ccc(N)cc1` the survivor count (dose: 100.0 mg/kg/injection, schedule: Q04DX003 (ip), vehicle: saline) was 0 of 6, the survivor count (dose: 200.0 mg/kg/injection, schedule: Q04DX003 (ip), vehicle: saline) was 0 of 6 and the survivor count [10] was 0 of 6.
`NC1CC(c2ccccc2)NC(c2ccccc2)C1` (stereo not drawn) was tested, and the survivor count (dose: 30.0 mg/kg/injection, schedule: Q01DX001 (ip), vehicle: carboxymethylcellulose (CMC)) was 0 of 6, the survivor count (dose: 60.0 mg/kg/injection, schedule: Q01DX001 (ip), vehicle: carboxymethylcellulose (CMC)) was 0 of 6 and the survivor count (dose: 75.0 mg/kg/injection, schedule: Q01DX001 (ip), vehicle: carboxymethylcellulose (CMC)) was 0 of 6. The survivor count (dose: 150.0 mg/kg/injection, schedule: Q01DX001 (ip), vehicle: carboxymethylcellulose (CMC)) was 0 of 6 and the survivor count (dose: 300.0 mg/kg/injection, schedule: Q01DX001 (ip), vehicle: carboxymethylcellulose (CMC)) was 0 of 6.
`Cc1cc2cc3cccnn3c2nn1` was tested, and the survivor count [7] was 0 of 3 and the survivor count [8] was 0 of 3.
`CC(=O)c1cccc(NC(=O)Oc2ccc(-c3ccccc3)cc2)c1` was tested, and the survivor count [2] was 3 of 3 and the survivor count [3] was 6 of 6.
In the case of `O=C1SC2(CCCCC2)SC1=O`, the survivor count [2] is reported as 0 of 6 and the survivor count [1] is reported as 3 of 6.
For `C=C(C)[P+](C)(c1ccccc1)c1ccccc1`, the survivor count (dose: 10.0 mg/kg/injection, schedule: Q01DX001 (ip), vehicle: saline) was 1 of 6, the survivor count (dose: 15.0 mg/kg/injection, schedule: Q01DX001 (ip), vehicle: saline) was 0 of 6 and the survivor count (dose: 30.0 mg/kg/injection, schedule: Q01DX001 (ip), vehicle: saline) was 0 of 6. The survivor count (dose: 60.0 mg/kg/injection, schedule: Q01DX001 (ip), vehicle: saline) was 0 of 6, the survivor count (dose: 75.0 mg/kg/injection, schedule: Q01DX001 (ip), vehicle: saline) was 0 of 6 and the survivor count (dose: 150.0 mg/kg/injection, schedule: Q01DX001 (ip), vehicle: saline) was 0 of 6. The survivor count (dose: 300.0 mg/kg/injection, schedule: Q01DX001 (ip), vehicle: saline) was 1 of 6.
`COc1cc(C(=O)NNC(=O)C(=O)NNC(=O)c2cc(OC)c(OC)c(OC)c2)cc(OC)c1OC` was tested, and the survivor count (dose: 25.0 mg/kg/injection, schedule: Q01DX009 (ip), vehicle: Klucel (hydroxypropylcellulose) (HPC)) was 5 of 6, the survivor count [11] was 0 of 6 and 1 of 6 and the survivor count [12] was 4 of 6. For the same molecule, the survivor count [4] was 4 of 6.
For `CC(C)(C)CC(C)(C)c1ccc(OCCOc2ccc(NS(=O)(=O)c3ccc(N)c([N+](=O)[O-])c3)cc2)cc1`, the survivor count [1] was 6 of 6.
For `CC1(C)CC(=O)C(C23C=CC2=C(CO)C(=O)OC3)C1` (stereo not drawn), the survivor count (dose: 50.0 mg/kg/injection, schedule: Q01DX001 (ip), vehicle: saline) was 0 of 4, the survivor count (dose: 80.0 mg/kg/injection, schedule: Q01DX001 (ip), vehicle: saline) was 2 of 4 and the survivor count (dose: 100.0 mg/kg/injection, schedule: Q01DX001 (ip), vehicle: saline) was 1 of 4. For the same molecule, the survivor count [5] was 0 of 4 and the survivor count [6] was 0 of 4.
In the case of `CCCCOB(OCCCC)c1cccc(C(F)(F)F)c1`, the survivor count (dose: 400.0 mg/kg/injection, schedule: Q01DX009 (ip), vehicle: saline) is reported as 0 of 6.
In the case of `CC1(CBr)OCCCO1`, the survivor count (dose: 200.0 mg/kg/injection, schedule: Q04DX002 (ip), vehicle: saline with Tween-80) is reported as 2 of 3 and the survivor count (dose: 400.0 mg/kg/injection, schedule: Q04DX002 (ip), vehicle: saline with Tween-80) is reported as 0 of 3.
`C#CC1CC2C3CCC4=CC(=O)CCC4(C)C3CCC2(C)C1N(C)C` (stereo not drawn) was tested, and the survivor count (dose: 200.0 mg/kg/injection, schedule: Q01DX001 (sc), vehicle: steroid suspending solution) was 2 of 4 and the survivor count (dose: 400.0 mg/kg/injection, schedule: Q01DX001 (sc), vehicle: steroid suspending solution) was 0 of 4.
With `Cc1cccc(NC(=O)Nc2cccc3ccccc23)c1C` the survivor count (dose: 100.0 mg/kg/injection, schedule: Q04DX003 (ip), vehicle: Klucel (hydroxypropylcellulose) (HPC)) was 6 of 6.
With `CCCC[n+]1ccc(C(N)=O)cc1` the survivor count [10] was 2 of 6.
For `Cc1ccc(N=Nc2ccc(N(C)C)cc2)c2cccnc12`, the survivor count [1] was 6 of 6.
For `O=C(CCC(=O)OCCBr)OCCBr`, the survivor count [9] was 5 of 6.
With `O=C(Nc1ccc([N+](=O)[O-])cc1O)c1ccccc1` the survivor count [1] was 6 of 6.
For `Clc1cc(C(Cl)(Cl)Cl)ccc1C(Cl)(Cl)Cl`, the survivor count [11] was 3 of 3, the survivor count [12] was 3 of 3 and the survivor count [4] was 3 of 3.
`Cc1c2c(ccc3ccccc32)cc2cccc[n+]12` was tested, and the survivor count (dose: 8.0 mg/kg/injection, schedule: Q01DX Z (ip), vehicle: saline) was 5 of 6 and the survivor count (dose: 16.0 mg/kg/injection, schedule: Q01DX Z (ip), vehicle: saline) was 0 of 6.
With `COC(OC)c1cc(=O)[nH]c(NC(=O)C(Cl)Cl)n1` the survivor count (dose: 100.0 mg/kg/injection, schedule: Q01DX009 (ip), vehicle: saline with Tween-80) was 6 of 6.
